The values that follow come from PMC5638340.

Sequences of proteins named here, by UniProt entry; tags and fusion partners are left off. Residues count along the entry.
UniProt P36544, residues 23-502: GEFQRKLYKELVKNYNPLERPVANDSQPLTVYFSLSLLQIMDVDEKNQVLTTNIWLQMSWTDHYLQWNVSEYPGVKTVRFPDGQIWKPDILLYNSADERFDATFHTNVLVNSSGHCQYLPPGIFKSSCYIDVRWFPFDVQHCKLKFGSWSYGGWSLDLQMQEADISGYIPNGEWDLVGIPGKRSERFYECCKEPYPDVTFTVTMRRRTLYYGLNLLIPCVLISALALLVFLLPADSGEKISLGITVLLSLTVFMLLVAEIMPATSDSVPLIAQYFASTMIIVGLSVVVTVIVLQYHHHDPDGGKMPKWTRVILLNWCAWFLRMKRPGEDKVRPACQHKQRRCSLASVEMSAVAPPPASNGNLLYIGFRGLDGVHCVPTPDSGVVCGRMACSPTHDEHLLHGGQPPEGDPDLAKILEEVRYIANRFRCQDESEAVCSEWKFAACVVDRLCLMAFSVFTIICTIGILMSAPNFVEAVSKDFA
UniProt P60615, residues 22-95: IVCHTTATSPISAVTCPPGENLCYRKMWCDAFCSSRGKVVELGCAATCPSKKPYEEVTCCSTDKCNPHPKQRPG

These are yes or no findings as the source states them, for the method shown. Some binding calls cover weakened binding; strength is not graded here.

For the assay, the target named is Human α7 nAChR expressed in GH4C1 cells (human) (UniProt P36544). In words: radioligand binding; only the binder purified.

As for “Mono-iodinated (3-[125I]iodotyrosyl54)-α-bungarotoxin (from UniProt P60615 22-95) (ligand)”, the binding entry is given as “binds”.
